# According to the supplement of paper PMC12067093, “Discovery and optimisation of a covalent ligand for TRIM25 and its application to targeted protein ubiquitination” (Chemical Science, 2025):
# Protein sequences, listed by entry. Tags and fused reporters are not part of them. Lines headed by an entry give the natural chain unless they say otherwise; changes in a name come on top.
# UniProt P00519, whole entry, looked up: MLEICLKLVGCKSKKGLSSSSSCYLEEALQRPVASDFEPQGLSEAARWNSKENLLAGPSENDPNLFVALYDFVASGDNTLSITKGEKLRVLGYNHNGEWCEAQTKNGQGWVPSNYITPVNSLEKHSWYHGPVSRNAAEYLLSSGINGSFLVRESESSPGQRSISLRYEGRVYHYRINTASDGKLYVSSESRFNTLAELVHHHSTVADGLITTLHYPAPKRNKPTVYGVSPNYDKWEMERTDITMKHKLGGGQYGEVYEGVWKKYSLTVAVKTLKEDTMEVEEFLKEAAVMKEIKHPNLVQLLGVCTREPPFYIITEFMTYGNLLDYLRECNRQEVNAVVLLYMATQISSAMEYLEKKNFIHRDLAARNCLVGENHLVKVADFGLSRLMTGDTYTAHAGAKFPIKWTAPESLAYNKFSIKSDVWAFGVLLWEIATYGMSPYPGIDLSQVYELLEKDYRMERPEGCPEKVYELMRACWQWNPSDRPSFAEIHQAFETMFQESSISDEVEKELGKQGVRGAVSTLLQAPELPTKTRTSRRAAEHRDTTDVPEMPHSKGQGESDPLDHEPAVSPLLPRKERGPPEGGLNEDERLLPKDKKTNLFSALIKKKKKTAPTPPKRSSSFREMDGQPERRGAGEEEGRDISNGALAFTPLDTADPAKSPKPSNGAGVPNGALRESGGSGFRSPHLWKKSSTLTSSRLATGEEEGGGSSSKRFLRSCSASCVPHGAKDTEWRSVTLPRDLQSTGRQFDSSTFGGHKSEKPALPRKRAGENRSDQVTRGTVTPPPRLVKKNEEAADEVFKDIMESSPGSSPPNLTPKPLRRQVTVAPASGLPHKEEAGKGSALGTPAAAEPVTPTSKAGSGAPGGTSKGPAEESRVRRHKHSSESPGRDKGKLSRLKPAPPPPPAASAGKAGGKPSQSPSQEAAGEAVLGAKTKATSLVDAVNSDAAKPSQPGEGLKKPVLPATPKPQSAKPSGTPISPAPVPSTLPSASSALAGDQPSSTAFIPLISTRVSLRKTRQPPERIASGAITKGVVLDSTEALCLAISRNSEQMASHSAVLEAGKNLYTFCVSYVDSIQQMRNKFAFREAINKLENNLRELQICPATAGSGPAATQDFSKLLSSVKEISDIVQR
# UniProt Q9NUJ1: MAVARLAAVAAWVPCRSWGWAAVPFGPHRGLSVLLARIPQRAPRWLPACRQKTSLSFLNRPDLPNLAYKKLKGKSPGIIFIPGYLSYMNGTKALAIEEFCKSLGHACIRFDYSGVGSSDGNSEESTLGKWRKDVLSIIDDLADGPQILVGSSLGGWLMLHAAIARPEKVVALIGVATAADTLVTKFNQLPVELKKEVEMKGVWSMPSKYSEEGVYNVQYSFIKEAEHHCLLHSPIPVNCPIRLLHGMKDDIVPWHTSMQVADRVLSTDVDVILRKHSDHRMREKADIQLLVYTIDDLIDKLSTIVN
# UniProt Q9UG63: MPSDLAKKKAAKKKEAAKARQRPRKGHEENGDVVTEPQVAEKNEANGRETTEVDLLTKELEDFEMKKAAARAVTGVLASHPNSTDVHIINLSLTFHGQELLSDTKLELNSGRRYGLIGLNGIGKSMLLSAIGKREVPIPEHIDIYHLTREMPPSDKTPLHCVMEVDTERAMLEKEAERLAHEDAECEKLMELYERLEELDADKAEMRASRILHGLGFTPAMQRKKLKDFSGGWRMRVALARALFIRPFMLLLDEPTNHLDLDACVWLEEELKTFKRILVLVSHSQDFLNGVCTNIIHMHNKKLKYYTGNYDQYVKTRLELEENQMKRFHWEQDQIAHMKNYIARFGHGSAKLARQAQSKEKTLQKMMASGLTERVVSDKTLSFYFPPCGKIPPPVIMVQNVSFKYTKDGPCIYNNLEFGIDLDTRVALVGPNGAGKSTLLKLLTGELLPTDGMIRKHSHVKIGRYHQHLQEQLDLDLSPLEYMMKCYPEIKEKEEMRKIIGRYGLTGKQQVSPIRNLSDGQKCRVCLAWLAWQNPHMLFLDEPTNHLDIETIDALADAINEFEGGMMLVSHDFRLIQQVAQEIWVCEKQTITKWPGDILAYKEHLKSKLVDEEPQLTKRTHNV
# UniProt P09110: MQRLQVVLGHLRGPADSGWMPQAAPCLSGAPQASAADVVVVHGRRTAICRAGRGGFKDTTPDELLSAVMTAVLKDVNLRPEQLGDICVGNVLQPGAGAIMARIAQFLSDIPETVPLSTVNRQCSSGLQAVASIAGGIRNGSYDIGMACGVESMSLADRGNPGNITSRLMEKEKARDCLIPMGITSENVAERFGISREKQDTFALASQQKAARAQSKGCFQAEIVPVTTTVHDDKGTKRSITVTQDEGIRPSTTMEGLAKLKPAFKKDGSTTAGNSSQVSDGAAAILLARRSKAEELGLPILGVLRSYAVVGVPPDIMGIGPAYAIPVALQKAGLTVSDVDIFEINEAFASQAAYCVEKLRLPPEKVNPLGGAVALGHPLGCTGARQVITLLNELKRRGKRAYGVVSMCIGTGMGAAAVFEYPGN
# UniProt P49753: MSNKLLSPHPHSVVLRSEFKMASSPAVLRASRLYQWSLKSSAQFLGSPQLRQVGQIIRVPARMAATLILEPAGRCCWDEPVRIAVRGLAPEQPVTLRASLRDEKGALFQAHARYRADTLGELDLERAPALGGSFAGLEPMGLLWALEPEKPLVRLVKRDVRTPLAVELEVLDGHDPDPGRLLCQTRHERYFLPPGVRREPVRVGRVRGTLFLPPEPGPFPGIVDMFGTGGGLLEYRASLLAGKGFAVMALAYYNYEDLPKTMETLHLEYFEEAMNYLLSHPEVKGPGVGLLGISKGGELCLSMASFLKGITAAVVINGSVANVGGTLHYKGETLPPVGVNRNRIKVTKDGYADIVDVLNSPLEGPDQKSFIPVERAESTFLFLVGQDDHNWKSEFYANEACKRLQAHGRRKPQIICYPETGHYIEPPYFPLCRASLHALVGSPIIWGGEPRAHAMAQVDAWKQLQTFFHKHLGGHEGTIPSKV
# UniProt Q12979: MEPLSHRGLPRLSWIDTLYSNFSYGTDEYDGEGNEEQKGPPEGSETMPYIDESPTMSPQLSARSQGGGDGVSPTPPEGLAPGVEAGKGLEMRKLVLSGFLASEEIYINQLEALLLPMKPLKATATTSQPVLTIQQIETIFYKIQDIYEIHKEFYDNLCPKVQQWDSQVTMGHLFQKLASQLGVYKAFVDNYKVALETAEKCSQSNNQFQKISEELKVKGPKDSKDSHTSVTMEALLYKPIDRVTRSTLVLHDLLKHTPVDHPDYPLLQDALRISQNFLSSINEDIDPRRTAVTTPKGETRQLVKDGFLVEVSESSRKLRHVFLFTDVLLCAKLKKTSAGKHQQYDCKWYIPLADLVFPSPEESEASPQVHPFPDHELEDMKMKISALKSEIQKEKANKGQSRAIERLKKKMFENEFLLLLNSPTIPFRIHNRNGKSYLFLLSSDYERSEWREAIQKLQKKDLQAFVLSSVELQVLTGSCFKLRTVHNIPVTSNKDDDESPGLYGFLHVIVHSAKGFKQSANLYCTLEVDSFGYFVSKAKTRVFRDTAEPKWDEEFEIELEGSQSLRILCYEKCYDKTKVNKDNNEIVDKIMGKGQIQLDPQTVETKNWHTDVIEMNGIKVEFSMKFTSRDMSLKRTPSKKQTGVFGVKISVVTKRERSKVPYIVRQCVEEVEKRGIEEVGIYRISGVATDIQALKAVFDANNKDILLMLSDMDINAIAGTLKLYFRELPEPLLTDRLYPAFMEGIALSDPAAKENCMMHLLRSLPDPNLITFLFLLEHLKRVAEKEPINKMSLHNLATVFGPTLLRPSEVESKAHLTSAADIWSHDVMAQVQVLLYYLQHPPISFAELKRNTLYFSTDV
# UniProt Q9H3P7: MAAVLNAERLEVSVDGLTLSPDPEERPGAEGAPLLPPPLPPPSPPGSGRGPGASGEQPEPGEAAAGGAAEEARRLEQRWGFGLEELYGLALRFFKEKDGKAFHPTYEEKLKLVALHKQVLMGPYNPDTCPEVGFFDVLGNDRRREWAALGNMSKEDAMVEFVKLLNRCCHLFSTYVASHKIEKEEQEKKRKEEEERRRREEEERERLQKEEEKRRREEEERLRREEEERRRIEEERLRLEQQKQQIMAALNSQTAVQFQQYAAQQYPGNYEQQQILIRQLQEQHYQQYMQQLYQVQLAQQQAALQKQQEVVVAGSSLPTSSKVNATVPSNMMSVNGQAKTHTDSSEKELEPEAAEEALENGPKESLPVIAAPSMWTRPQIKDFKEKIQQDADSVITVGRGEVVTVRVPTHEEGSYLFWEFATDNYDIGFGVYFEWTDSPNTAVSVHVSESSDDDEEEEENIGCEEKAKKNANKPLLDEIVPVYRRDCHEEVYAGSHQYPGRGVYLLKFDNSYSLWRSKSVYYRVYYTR
# UniProt P42765: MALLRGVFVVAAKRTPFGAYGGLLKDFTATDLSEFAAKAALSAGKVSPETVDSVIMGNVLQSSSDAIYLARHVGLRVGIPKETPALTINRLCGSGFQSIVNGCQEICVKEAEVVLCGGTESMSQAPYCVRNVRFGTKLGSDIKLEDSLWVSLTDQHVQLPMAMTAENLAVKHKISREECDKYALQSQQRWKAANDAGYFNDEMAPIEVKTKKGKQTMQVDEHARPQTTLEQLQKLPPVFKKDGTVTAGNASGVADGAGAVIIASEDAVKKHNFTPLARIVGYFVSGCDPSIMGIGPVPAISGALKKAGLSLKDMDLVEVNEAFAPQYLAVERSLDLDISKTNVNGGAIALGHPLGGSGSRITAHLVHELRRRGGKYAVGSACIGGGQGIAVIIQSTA
# UniProt P16219: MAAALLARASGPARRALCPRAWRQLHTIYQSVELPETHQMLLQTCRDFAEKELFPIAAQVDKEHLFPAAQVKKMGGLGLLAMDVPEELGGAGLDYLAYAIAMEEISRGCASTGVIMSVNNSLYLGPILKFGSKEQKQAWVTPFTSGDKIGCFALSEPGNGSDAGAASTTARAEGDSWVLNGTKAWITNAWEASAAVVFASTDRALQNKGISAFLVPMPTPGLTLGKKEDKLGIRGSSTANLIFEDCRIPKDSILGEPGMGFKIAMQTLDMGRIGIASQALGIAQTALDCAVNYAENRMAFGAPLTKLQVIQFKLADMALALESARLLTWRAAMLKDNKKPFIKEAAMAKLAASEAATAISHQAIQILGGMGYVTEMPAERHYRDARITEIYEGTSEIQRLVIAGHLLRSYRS
# UniProt Q9NRN7: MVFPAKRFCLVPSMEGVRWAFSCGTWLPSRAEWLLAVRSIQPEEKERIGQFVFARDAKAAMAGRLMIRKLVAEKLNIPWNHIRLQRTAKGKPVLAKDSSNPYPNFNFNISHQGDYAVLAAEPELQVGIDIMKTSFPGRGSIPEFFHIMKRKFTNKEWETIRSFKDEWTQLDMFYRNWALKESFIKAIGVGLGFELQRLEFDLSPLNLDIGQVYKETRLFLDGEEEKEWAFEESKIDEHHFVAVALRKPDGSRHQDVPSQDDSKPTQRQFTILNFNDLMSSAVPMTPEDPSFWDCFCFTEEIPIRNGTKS
# UniProt P49588, whole entry, looked up: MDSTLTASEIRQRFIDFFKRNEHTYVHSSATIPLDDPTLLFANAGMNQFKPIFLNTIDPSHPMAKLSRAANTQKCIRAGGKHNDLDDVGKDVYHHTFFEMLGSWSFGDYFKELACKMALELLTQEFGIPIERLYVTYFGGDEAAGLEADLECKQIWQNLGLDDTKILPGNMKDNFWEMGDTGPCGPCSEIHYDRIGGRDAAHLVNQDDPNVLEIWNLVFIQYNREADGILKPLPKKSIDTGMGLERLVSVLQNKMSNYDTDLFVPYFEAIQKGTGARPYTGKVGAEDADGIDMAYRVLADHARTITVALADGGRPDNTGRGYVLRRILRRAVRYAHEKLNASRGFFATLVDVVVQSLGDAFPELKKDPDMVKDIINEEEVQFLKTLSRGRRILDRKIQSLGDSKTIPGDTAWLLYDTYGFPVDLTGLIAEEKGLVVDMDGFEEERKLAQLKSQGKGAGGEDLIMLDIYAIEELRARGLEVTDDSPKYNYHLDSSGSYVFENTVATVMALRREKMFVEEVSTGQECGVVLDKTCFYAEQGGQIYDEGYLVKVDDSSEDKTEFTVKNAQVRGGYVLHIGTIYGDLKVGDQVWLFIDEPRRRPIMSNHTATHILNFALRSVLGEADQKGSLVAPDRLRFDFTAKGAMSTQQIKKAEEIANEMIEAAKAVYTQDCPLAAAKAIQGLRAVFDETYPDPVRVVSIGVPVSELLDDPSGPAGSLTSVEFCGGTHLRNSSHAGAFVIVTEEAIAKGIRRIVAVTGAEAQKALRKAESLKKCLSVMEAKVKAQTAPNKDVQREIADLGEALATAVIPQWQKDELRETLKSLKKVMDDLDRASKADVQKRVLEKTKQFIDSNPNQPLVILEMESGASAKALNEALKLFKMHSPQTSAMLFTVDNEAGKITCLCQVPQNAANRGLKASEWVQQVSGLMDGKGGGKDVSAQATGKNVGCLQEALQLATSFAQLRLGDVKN
# UniProt Q9H7C9: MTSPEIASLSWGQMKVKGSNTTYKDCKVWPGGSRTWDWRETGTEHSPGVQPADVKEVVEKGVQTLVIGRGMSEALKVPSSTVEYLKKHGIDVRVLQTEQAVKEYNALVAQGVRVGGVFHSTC
# The list shows a part of the results.
# Compound: CC1Cc2ccccc2N1C(=O)C1CCCN(C1)C(=O)CCl (mixture of isomers) [TRIM25 ligand 11 (diastereomer mixture)]
# Experiment: probe-labelled cysteine peptide fold change vs DMSO (competition) (log2 fold change); higher = less target engagement (more negative = stronger competition)
# Conditions: THP-1, incubation time: 4 h
# 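Note: competitive chemoproteomic profiling in live THP-1 cells with an iodoacetamide desthiobiotin (IA-DTB) probe, comparing probe-labelled peptide intensities in compound-treated cells against DMSO-treated controls.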
Target,probe-labelled cysteine peptide fold change (10 µM),probe-labelled cysteine peptide fold change (50 µM)
AACS_Q86V21_493_AVWGESGELVCTKPIPCQPTHFWNDENGNK (UniProt Q86V21),0.0688,-0.0616
ABL1_P00519-2_39_HGGPHCNVFVEHEALQRPVASDFEPQGLSEAAR (UniProt P00519),-0.11,-0.0341
ACADSB_P45954_385_CIEWMGGVGYTK (UniProt P45954),0.127,0.154
ABHD10_Q9NUJ1_229_EAEHHCLLHSPIPVNCPIR (UniProt Q9NUJ1),-0.123,0.136
ABL1_P00519_100_VLGYNHNGEWCEAQTK (UniProt P00519),0.0166,0.0865
ACACB_O00763_1429_SLREEPIHILNVSIQCADHLEDEALVPILR (UniProt O00763),-0.0661,-0.0522
ACO1_P21399_118_INPVCPADLVIDHSIQVDFNRR (UniProt P21399),-0.044,0.0205
ACIN1_Q9UKV3_1223_AAPCIYWLPLTDSQIVQK (UniProt Q9UKV3),-0.0905,-0.186
ABCF2_Q9UG63_161_TPLHCVMEVDTER (UniProt Q9UG63),-0.000656,-0.172
ACAA1_P09110_177_DCLIPMGITSENVAER (UniProt P09110),-0.13,-0.199
ACAA1_P09110_177_ARDCLIPMGITSENVAER (UniProt P09110),-0.0216,0.0471
ABCD1_P33897_599_EGGWEAMCDWK (UniProt P33897),0.077,-0.149
ABHD10_Q9NUJ1_100_ALAIEEFCK (UniProt Q9NUJ1),0.101,0.0939
ABCF2_Q9UG63_586_LIQQVAQEIWVCEK (UniProt Q9UG63),0.187,0.141
ACOT2_P49753_401_SEFYANEACK (UniProt P49753),-0.0128,-0.2
A2ML1_A8K2U0_694_PVDCSHR (UniProt A8K2U0),-0.182,-0.00161
ACAD10_Q6JQN1_197_LCLEQLGLQPSESIFLDDLGTNLK (UniProt Q6JQN1),0.0777,0.0233
ABCC4_O15439_1226_FAHCTVLTIAHR (UniProt O15439),0.195,0.217
ACBD5_Q5T8D3_83_QATEGPCK (UniProt Q5T8D3),0.116,0.113
ABCF1_Q8NE71_758_VVFAELACR (UniProt Q8NE71),0.244,0.249
ACACA_Q13085_1230_MSFSSNLNHYGMTHVASVSDVLLDNSFTPPCQR (UniProt Q13085),-0.0851,-0.149

Target,probe-labelled cysteine peptide fold change (10 µM),probe-labelled cysteine peptide fold change (50 µM)
ABCF3_Q9NUQ8_522_ICVVGENGAGK (UniProt Q9NUQ8),0.00841,-0.129
AARS2_Q5JTZ9_750_VVSVGVPVAHALDPASQAALQTSVELCCGTHLLR (UniProt Q5JTZ9),0.254,0.147
ABR_Q12979_158_EFYDNLCPK (UniProt Q12979),-0.00352,-0.0104
ABHD16A_O95870_248_LVEECNGR (UniProt O95870),0.0101,-0.0546
ABCC1_P33527_1047_CLHVDLLHSILR (UniProt P33527),-0.0587,-0.29
AAK1_Q2M2I8_159_LQTGFTENEVLQIFCDTCEAVAR (UniProt Q2M2I8),0.25,0.136
ACBD3_Q9H3P7_129_QVLMGPYNPDTCPEVGFFDVLGNDRR (UniProt Q9H3P7),0.0343,-0.0614
ACAA2_P42765_116+128_EAEVVLCGGTESMSQAPYCVR (UniProt P42765),-0.275,-0.126
ACADS_P16219_246_GSSTANLIFEDCR (UniProt P16219),-0.0306,-0.183
ACAP2_Q15057_691_GPLHHATVLGHTGQVCLFLK (UniProt Q15057),-0.0338,-0.202
AASDHPPT_Q9NRN7_23_WAFSCGTWLPSR (UniProt Q9NRN7),-0.0315,0.109
AAMP_Q13685_130_LSDGELLFECAGHK (UniProt Q13685),0.043,-0.0263
ACBD3_Q9H3P7_487_RDCHEEVYAGSHQYPGR (UniProt Q9H3P7),0.146,0.0513
ABR_Q12979_756_ENCMMHLLR (UniProt Q12979),-0.00366,0.00476
AARS_P49588_187_DNFWEMGDTGPCGPCSEIHYDR (UniProt P49588),-0.134,-0.137
ACO1_P21399_50_NCDEFLVK (UniProt P21399),-0.0915,0.0905
ABCF1_Q8NE71_655_ICIVGPNGVGK (UniProt Q8NE71),0.144,0.0955
ACAA1_P09110_381_VNPLGGAVALGHPLGCTGAR (UniProt P09110),0.0215,0.146
ACAA1_P09110_218_GCFQAEIVPVTTTVHDDK (UniProt P09110),-0.0953,-0.06
ACAA2_P42765_116_EAEVVLCGGTESMSQAPYCVR (UniProt P42765),0.222,-0.145
ABRAXAS2_Q15018_224_VQAVCADVEK (UniProt Q15018),0.076,0.0828

# Random excerpt: 4 entries already listed, in no set order.
Target,probe-labelled cysteine peptide fold change (10 µM),probe-labelled cysteine peptide fold change (50 µM)
AASDHPPT_Q9NRN7_23_WAFSCGTWLPSR (UniProt Q9NRN7),-0.0315,0.109
ABRAXAS2_Q15018_224_VQAVCADVEK (UniProt Q15018),0.076,0.0828
ABR_Q12979_158_EFYDNLCPK (UniProt Q12979),-0.00352,-0.0104
ACAA2_P42765_116+128_EAEVVLCGGTESMSQAPYCVR (UniProt P42765),-0.275,-0.126

# (next part)

Target,probe-labelled cysteine peptide fold change (10 µM),probe-labelled cysteine peptide fold change (50 µM)
ABI1_Q8IZP0_488_NDDGWYEGVCNR (UniProt Q8IZP0),0.000739,0.0335
ACAD9_Q9H845_507_TVDLGLTGNHGVVHPSLADSANKFEENTYCFGR (UniProt Q9H845),0.145,-0.0473
ACBD3_Q9H3P7_168_CCHLFSTYVASHK (UniProt Q9H3P7),0.0944,-0.0099
ACAT2_Q9BWD1_360_VNIEGGAIALGHPLGASGCR (UniProt Q9BWD1),0.16,0.126
ABCF3_Q9NUQ8_680_ELWVCEGGGVTR (UniProt Q9NUQ8),0.0503,0.0999
ACAD9_Q9H845_271_GSNTCEVHFENTK (UniProt Q9H845),0.247,0.00981
ACLY_P53396_20_FICTTSAIQNR (UniProt P53396),0.0576,0.0555
AARS_P49588_184+187_DNFWEMGDTGPCGPCSEIHYDR (UniProt P49588),0.105,-0.0756
AAAS_Q9NRG9_331_CQTGCWSPDGSR (UniProt Q9NRG9),-0.0735,0.00241
ACOT11_Q8WXI4_498_RKPCDNGDPYVIALR (UniProt Q8WXI4),-0.07,-0.0208
ACADM_P11310_159_MTEEPLMCAYCVTEPGAGSDVAGIK (UniProt P11310),-0.135,-0.324
AARS2_Q5JTZ9_596+609_AQVCGGFILHEAVAPECLR (UniProt Q5JTZ9),0.163,0.342
AAAS_Q9NRG9_321_VWEAQMWTCER (UniProt Q9NRG9),-0.0742,-0.183
AAAS_Q9NRG9_444_NSPVFELLPCGIIQGEPGAQPQLITFHPSFNK (UniProt Q9NRG9),0.193,0.0961
ACD_Q96AP0_466_EFVGLPCK (UniProt Q96AP0),-0.0366,-0.177
ACAA1_P09110_87_DVNLRPEQLGDICVGNVLQPGAGAIMAR (UniProt P09110),0.0464,0.0319
ABL2_P42684_415_NCLVGENHVVK (UniProt P42684),0.0416,0.145
ABCF2_Q9UG63_186_LAHEDAECEK (UniProt Q9UG63),0.0364,-0.158
ABCB1_P08183_1074_KGQTLALVGSSGCGK (UniProt P08183),-0.0574,-0.0554
ACBD3_Q9H3P7_169_CCHLFSTYVASHK (UniProt Q9H3P7),0.129,0.07
ACACA_Q13085_1769_RVSALNSVHCEHVEDEGESR (UniProt Q13085),0.292,0.415

Target,probe-labelled cysteine peptide fold change (10 µM),probe-labelled cysteine peptide fold change (50 µM)
ABCA2_Q9BZC7_1542_LPSGVGATCVLK (UniProt Q9BZC7),-0.0564,-0.0927
ACAA2_P42765_287_IVGYFVSGCDPSIMGIGPVPAISGALK (UniProt P42765),0.119,-0.131
AARS_P49588_533_TCFYAEQGGQIYDEGYLVK (UniProt P49588),-0.0583,-0.124
ACADVL_P49748_603_MLCDTWCIEAAAR (UniProt P49748),0.0675,-0.13
ACAD9_Q9H845_179_LASGEHIAAFCLTEPASGSDAASIR (UniProt Q9H845),0.158,0.157
ABHD12_Q8N2K0_323_HISCPLLILHAEDDPVVPFQLGR (UniProt Q8N2K0),0.285,-0.000338
ACACA_Q13085_1297_TDCDIEDDRLAAMFR (UniProt Q13085),0.0398,-0.09
ACADS_P16219_109_GCASTGVIMSVNNSLYLGPILK (UniProt P16219),0.201,0.216
ACO2_Q99798_332_DHLVPDPGCHYDQLIEINLSELK (UniProt Q99798),0.0742,0.101
ACLY_P53396_633_GVTIIGPATVGGIKPGCFK (UniProt P53396),0.0182,-0.0957
ACADSB_P45954_261_ASSTCPLTFENVK (UniProt P45954),-0.0344,-0.093
AAAS_Q9NRG9_279_VWDVSTETCVPLPWFR (UniProt Q9NRG9),0.508,0.251
ACAD9_Q9H845_613_AYICAHPLDR (UniProt Q9H845),0.0592,-0.00872
ACIN1_Q9UKV3_1052_SHCFVTYSTVEEAVATR (UniProt Q9UKV3),-0.0442,0.0352
ABCD3_P28288_477_SGANVLICGPNGCGK (UniProt P28288),-0.00447,0.405
ACO2_Q99798_451_DLGGIVLANACGPCIGQWDR (UniProt Q99798),-0.0432,0.121
ABCE1_P61221_475_VALALCLGK (UniProt P61221),-0.0455,0.0485
ACO2_Q99798_332_DHLVPDPGCHYDQLIEINLSELKPHINGPFTPDLAHPVAEVGK (UniProt Q99798),0.0137,0.0386
AAMDC_Q9H7C9_122_VGGVFHSTC (UniProt Q9H7C9),-0.0421,-0.0926
